Results are given in words; binding and its absence hold for the method and conditions named.
Molecular target: human dihydrouridine synthase 2 (human) (UniProt Q9NX74)
Assay: SEC-MALS; SEC-MALLS on Superdex 200 10/300 GL (Shimadzu Prominence HPLC, MiniDAWN TREOS, Optilab T-rEX); full length hDus2 free in solution; both purified

Chains of the proteins cited; added tags and fusions are not shown.
UniProt Q9NX74: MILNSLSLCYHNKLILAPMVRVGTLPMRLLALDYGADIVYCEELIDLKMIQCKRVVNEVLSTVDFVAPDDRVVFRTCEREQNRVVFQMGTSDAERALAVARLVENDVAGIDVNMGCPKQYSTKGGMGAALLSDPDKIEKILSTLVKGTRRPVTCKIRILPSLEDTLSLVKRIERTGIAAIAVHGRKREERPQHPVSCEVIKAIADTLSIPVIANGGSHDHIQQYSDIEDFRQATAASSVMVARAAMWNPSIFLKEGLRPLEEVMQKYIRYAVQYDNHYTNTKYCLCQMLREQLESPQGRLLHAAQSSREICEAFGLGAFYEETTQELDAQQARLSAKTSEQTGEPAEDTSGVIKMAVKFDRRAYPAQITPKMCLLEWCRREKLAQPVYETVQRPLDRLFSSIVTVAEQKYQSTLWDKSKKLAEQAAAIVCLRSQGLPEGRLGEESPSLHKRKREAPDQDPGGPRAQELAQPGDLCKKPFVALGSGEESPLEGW

binding: no binding
Substance: human dihydrouridine synthase 2 (from UniProt Q9NX74 1-493) (enzyme)

Source: article PMC6451096, “Molecular basis for transfer RNA recognition by the double-stranded RNA-binding domain of human dihydrouridine synthase 2”
